From the supplement of paper PMC12542422
Where a name gives a salt, the structure may show the parent alone. ± gives the standard deviation of the averaged measurements. Some of the results follow. Values are raw readings; no control value is given beside them.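 HeLa cells imaged for ribosome-assembly readouts (ENP1 staining with or without export block, or inducible tagged ribosomal protein reporters); machine learning classified each cell's signal location against solvent (DMSO) controls. Hits exceeded the DMSO false-positive mean by five standard deviations, then were visually confirmed; three biological replicates.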

Columns and labels:
[1] = tested on: HeLa K (ENP1 immunofluorescence, +LMB); assay: fraction of cells with nucleolar or nucleolar/nucleoplasmic ENP1 signal (MainHitrate); higher = more cells with nucleolar/nuclear readout signal (for ENP1 -LMB: less RNAPI inhibition; for +LMB ENP1 and RP reporters: stronger nuclear/nucleolar retention, i.e. ribosome biogenesis defect); details: concentration: 1 µM; treatment time: 6 h; ENP1 +LMB; leptomycin B: 20 nM, last 1.5 h
[2] = tested on: HeLa K (ENP1 immunofluorescence, no LMB); assay: as above; details: concentration: 1 µM; treatment time: 6 h; ENP1 -LMB; leptomycin B: none
[3] = tested on: HeLa RPS2-YFP reporter; assay: fraction of reporter-positive cells with nuclear (nucleolar or nucleolar/nucleoplasmic) RPS2-YFP (MainHitrate); higher = more cells with nucleolar/nuclear readout signal (for ENP1 -LMB: less RNAPI inhibition; for +LMB ENP1 and RP reporters: stronger nuclear/nucleolar retention, i.e. ribosome biogenesis defect); details: concentration: 1 µM; treatment time: 6 h
[4] = tested on: HeLa RPL29-GFP reporter; assay: fraction of reporter-positive cells with nuclear (nucleolar or nucleolar/nucleoplasmic) RPL29-GFP (MainHitrate); higher = more cells with nucleolar/nuclear readout signal (for ENP1 -LMB: less RNAPI inhibition; for +LMB ENP1 and RP reporters: stronger nuclear/nucleolar retention, i.e. ribosome biogenesis defect); details: concentration: 1 µM; treatment time: 6 h

Question: With `CC(CCc1ccc(O)cc1)NCC(O)c1ccc(O)cc1` (configuration not stated) [Ractopamine HCl] as the compound, how does the fraction [1] read?
Answer: 0.0954 ± 0.11

Question: What about the fraction [2] of the same compound?
Answer: 0.9988 ± 0.002

Question: And the “fraction of reporter-positive cells with nuclear” value (“fraction … with nuclear” for short) [3]?
Answer: 0.192 ± 0.21

Question: And the “fraction … with nuclear” value [4]?
Answer: 0.311 ± 0.26

Question: `COc1ccccc1N1CCN(CC(O)COc2cccc3ccccc23)CC1` (configuration not stated) [Naftopidil (Flivas)] was tested. Which fraction [1] did it give?
Answer: 0.115 ± 0.18

Question: What about the fraction [2] of the same compound?
Answer: 0.988 ± 0.022

Question: And the “fraction … with nuclear” value [3]?
Answer: 0.121 ± 0.055

Question: What about the “fraction … with nuclear” value [4] of the same compound?
Answer: 0.341 ± 0.19

Question: What does the source list for `O=c1cc[nH]c(=O)[nH]1` [Uracil]?
Answer: fraction [1]: 0.0311 ± 0.033; fraction [2]: 0.988 ± 0.021; fraction of reporter-positive cells with nuclear [3]: 0.111 ± 0.078; fraction of reporter-positive cells with nuclear [4]: 0.214 ± 0.049

Question: Which fraction [1] does the source give for `CN(C)[C@@H]1C(O)=C(C(N)=O)C(=O)[C@@]2(O)C(O)=C3C(=O)c4c(O)cccc4[C@@](C)(O)[C@H]3[C@H](O)[C@@H]12` [Oxytetracycline dihydrate] here?
Answer: 0.0778 ± 0.097

Question: What about the fraction [2] of the same compound?
Answer: 0.976 ± 0.042

Question: And the “fraction … with nuclear” value [3]?
Answer: 0.134 ± 0.087

Question: And the “fraction … with nuclear” value [4]?
Answer: 0.219 ± 0.065

Question: Which results are given for `CN1C2CCCC1CC(NC(=O)c1nn(C)c3ccccc13)C2` (configuration not stated) [Granisetron HCl]?
Answer: fraction [1]: 0.054 ± 0.049; fraction [2]: 0.9985 ± 0.0025; fraction of reporter-positive cells with nuclear [3]: 0.102 ± 0.059; fraction of reporter-positive cells with nuclear [4]: 0.194 ± 0.081

Question: What does the source list for `COc1c2ccoc2cc2oc(=O)ccc12` [Bergapten]?
Answer: fraction [1]: 0.0659 ± 0.084; fraction [2]: 0.989 ± 0.019; fraction of reporter-positive cells with nuclear [3]: 0.148 ± 0.12; fraction of reporter-positive cells with nuclear [4]: 0.186 ± 0.076

Question: Which results are given for `Cc1nc(-c2ccc(OCC(C)C)c(C#N)c2)sc1C(=O)O` [Febuxostat (Uloric)]?
Answer: fraction [1]: 0.0519 ± 0.048; fraction [2]: 0.9987 ± 0.0023; fraction of reporter-positive cells with nuclear [3]: 0.0691 ± 0.029; fraction of reporter-positive cells with nuclear [4]: 0.192 ± 0.047

Question: Which fraction [1] does the source give for `C[C@]12CC[C@@H]3c4ccc(O)cc4CC[C@H]3[C@@H]1CCC2=O` [Estrone] here?
Answer: 0.0414 ± 0.014

Question: What about the fraction [2] of the same compound?
Answer: 0.9977 ± 0.004

Question: What about the “fraction … with nuclear” value [3] of the same compound?
Answer: 0.0946 ± 0.084

Question: And the “fraction … with nuclear” value [4]?
Answer: 0.216 ± 0.039

Question: Which fraction [1] does the source give for `Cc1cc2nc3c(=O)[nH]c(=O)nc-3n(C[C@H](O)[C@H](O)[C@H](O)CO)c2cc1C` [Riboflavin (Vitamin B2)] here?
Answer: 0.137 ± 0.2

Question: What about the fraction [2] of the same compound?
Answer: 0.994 ± 0.011

Question: What about the “fraction … with nuclear” value [3] of the same compound?
Answer: 0.127 ± 0.11

Question: What about the “fraction … with nuclear” value [4] of the same compound?
Answer: 0.246 ± 0.1

Question: How did the fraction [1] turn out when `CN1CCN2c3ccccc3Cc3ccccc3C2C1` (configuration not stated) [Mianserin hydrochloride] was run?
Answer: 0.152 ± 0.15

Question: And the fraction [2]?
Answer: 0.9982 ± 0.003

Question: What about the “fraction … with nuclear” value [3] of the same compound?
Answer: 0.127 ± 0.078

Question: What about the “fraction … with nuclear” value [4] of the same compound?
Answer: 0.192 ± 0.068

Question: Which fraction [1] does the source give for `NC(CO)(CO)CO` [Trometamol] here?
Answer: 0.0867 ± 0.13

Question: What about the fraction [2] of the same compound?
Answer: 0.993 ± 0.013

Question: And the “fraction … with nuclear” value [3]?
Answer: 0.114 ± 0.082

Question: What about the “fraction … with nuclear” value [4] of the same compound?
Answer: 0.226 ± 0.067

Question: Which fraction [1] does the source give for `Nc1ccc(S(=O)(=O)Nc2ncccn2)cc1` [Sulfadiazine] here?
Answer: 0.114 ± 0.14

Question: And the fraction [2]?
Answer: 0.9989 ± 0.002

Question: What about the “fraction … with nuclear” value [3] of the same compound?
Answer: 0.123 ± 0.08

Question: And the “fraction … with nuclear” value [4]?
Answer: 0.194 ± 0.079

Question: `N=C(N)c1ccc(N=NNc2ccc(C(=N)N)cc2)cc1` [Diminazene Aceturate] was tested. Which fraction [1] did it give?
Answer: 0.0609 ± 0.083

Question: And the fraction [2]?
Answer: 0.993 ± 0.012

Question: And the “fraction … with nuclear” value [3]?
Answer: 0.12 ± 0.11

Question: What about the “fraction … with nuclear” value [4] of the same compound?
Answer: 0.203 ± 0.057

Question: How did the fraction [1] turn out when `CCCCCCCCCCCCCCCCO` [1-Hexadecanol] was run?
Answer: 0.0704 ± 0.074

Question: What about the fraction [2] of the same compound?
Answer: 0.99 ± 0.017

Question: And the “fraction … with nuclear” value [3]?
Answer: 0.137 ± 0.1

Question: What about the “fraction … with nuclear” value [4] of the same compound?
Answer: 0.219 ± 0.08

Question: For `CC(=O)O[C@H]1C[C@@H]2CC[C@@H]3[C@H](CC[C@@]4(C)[C@H]3C[C@H]([N+]3(C)CCCCC3)[C@@H]4OC(C)=O)[C@@]2(C)C[C@@H]1N1CCCCC1` [Vecuronium Bromide], which fraction [1] is on record?
Answer: 0.117 ± 0.086

Question: And the fraction [2]?
Answer: 0.9979 ± 0.0037

Question: And the “fraction … with nuclear” value [3]?
Answer: 0.114 ± 0.079

Question: What about the “fraction … with nuclear” value [4] of the same compound?
Answer: 0.21 ± 0.086

Question: Which results are given for `C[C@@H](O)[C@H]1C(=O)N2C(C(=O)[O-])=C(SC3Cn4cnc[n+]4C3)[C@H](C)[C@H]12` (some centres not stated) [Biapenem]?
Answer: fraction [1]: 0.07 ± 0.061; fraction [2]: 0.998 ± 0.0035; fraction of reporter-positive cells with nuclear [3]: 0.104 ± 0.074; fraction of reporter-positive cells with nuclear [4]: 0.193 ± 0.048

Question: How did the fraction [1] turn out when `O=C(N[C@H](CO)[C@H](O)c1ccc([N+](=O)[O-])cc1)C(Cl)Cl` [Chloramphenicol (Chloromycetin)] was run?
Answer: 0.114 ± 0.066

Question: And the fraction [2]?
Answer: 0.9973 ± 0.0046

Question: And the “fraction … with nuclear” value [3]?
Answer: 0.107 ± 0.098

Question: And the “fraction … with nuclear” value [4]?
Answer: 0.184 ± 0.029

Question: `CC(N)C12CC3CC(CC(C3)C1)C2` (configuration not stated) [Rimantadine (Flumadine)] was tested. Which fraction [1] did it give?
Answer: 0.071 ± 0.1

Question: What about the fraction [2] of the same compound?
Answer: 0.9943 ± 0.0099

Question: What about the “fraction … with nuclear” value [3] of the same compound?
Answer: 0.0631 ± 0.035

Question: And the “fraction … with nuclear” value [4]?
Answer: 0.238 ± 0.058

Question: Which fraction [1] does the source give for `COc1ccc2c(c1)c(CC(=O)OCC(=O)O)c(C)n2C(=O)c1ccc(Cl)cc1` [Acemetacin (Emflex)] here?
Answer: 0.0649 ± 0.09

Question: And the fraction [2]?
Answer: 0.987 ± 0.023

Question: What about the “fraction … with nuclear” value [3] of the same compound?
Answer: 0.118 ± 0.097

Question: What about the “fraction … with nuclear” value [4] of the same compound?
Answer: 0.219 ± 0.061

Question: `CNC(=O)c1ccc(N2C(=S)N(c3ccc(C#N)c(C(F)(F)F)c3)C(=O)C2(C)C)cc1F` [MDV3100 (Enzalutamide)] was tested. Which fraction [1] did it give?
Answer: 0.14 ± 0.19

Question: What about the fraction [2] of the same compound?
Answer: 0.9986 ± 0.0024

Question: And the “fraction … with nuclear” value [3]?
Answer: 0.108 ± 0.049

Question: And the “fraction … with nuclear” value [4]?
Answer: 0.215 ± 0.057

Question: Which fraction [1] does the source give for `O=c1[nH]cnc2c1ncn2[C@H]1CC[C@@H](CO)O1` [Didanosine (Videx)] here?
Answer: 0.0788 ± 0.043

Question: What about the fraction [2] of the same compound?
Answer: 0.9986 ± 0.0025

Question: What about the “fraction … with nuclear” value [3] of the same compound?
Answer: 0.112 ± 0.073

Question: What about the “fraction … with nuclear” value [4] of the same compound?
Answer: 0.215 ± 0.037

Question: Which results are given for `O=C(C[S+]([O-])Cc1ccco1)NC/C=C\COc1cc(CN2CCCCC2)ccn1` (configuration not stated) [Lafutidine]?
Answer: fraction [1]: 0.104 ± 0.16; fraction [2]: 0.991 ± 0.016; fraction of reporter-positive cells with nuclear [3]: 0.123 ± 0.084; fraction of reporter-positive cells with nuclear [4]: 0.236 ± 0.086

Question: `COc1cc([C@@H]2c3cc4c(cc3[C@@H](O[C@@H]3O[C@@H]5CO[C@@H](C)O[C@H]5[C@H](O)[C@H]3O)[C@H]3COC(=O)[C@H]23)OCO4)cc(OC)c1O` [Etoposide (VP-16)] was tested. Which fraction [1] did it give?
Answer: 0.142 ± 0.18

Question: And the fraction [2]?
Answer: 0.9986 ± 0.0025

Question: And the “fraction … with nuclear” value [3]?
Answer: 0.0824 ± 0.042

Question: What about the “fraction … with nuclear” value [4] of the same compound?
Answer: 0.173 ± 0.056

Question: How did the fraction [1] turn out when `CC1(C)S[C@@H]2[C@H](NC(=O)C(C(=O)O)c3ccccc3)C(=O)N2[C@H]1C(=O)O` (some centres not stated) [Carbenicillin disodium] was run?
Answer: 0.0752 ± 0.097

Question: And the fraction [2]?
Answer: 0.976 ± 0.042

Question: And the “fraction … with nuclear” value [3]?
Answer: 0.105 ± 0.077

Question: What about the “fraction … with nuclear” value [4] of the same compound?
Answer: 0.218 ± 0.063

Question: What does the source list for `CN1CCC[C@@H]1CCO[C@](C)(c1ccccc1)c1ccc(Cl)cc1` [Clemastine Fumarate]?
Answer: fraction [1]: 0.123 ± 0.18; fraction [2]: 0.99 ± 0.018; fraction of reporter-positive cells with nuclear [3]: 0.109 ± 0.071; fraction of reporter-positive cells with nuclear [4]: 0.225 ± 0.081

Question: Which results are given for `NCCCCCC(=O)O` [Aminocaproic acid (Amicar)]?
Answer: fraction [1]: 0.0675 ± 0.039; fraction [2]: 0.9982 ± 0.0032; fraction of reporter-positive cells with nuclear [3]: 0.0758 ± 0.021; fraction of reporter-positive cells with nuclear [4]: 0.244 ± 0.02

Question: For `CO[C@@]1(NC(=O)C(C(=O)O)c2ccc(O)cc2)C(=O)N2C(C(=O)O)=C(CSc3nnnn3C)CO[C@@H]21` (some centres not stated) [Moxalactam Disodium], which fraction [1] is on record?
Answer: 0.0927 ± 0.12

Question: What about the fraction [2] of the same compound?
Answer: 0.994 ± 0.011

Question: What about the “fraction … with nuclear” value [3] of the same compound?
Answer: 0.0962 ± 0.052

Question: What about the “fraction … with nuclear” value [4] of the same compound?
Answer: 0.29 ± 0.22

Question: `NC[C@@H]1O[C@H](O[C@H]2[C@@H](O)[C@H](O[C@@H]3[C@@H](O)[C@H](N)C[C@H](N)[C@H]3O[C@H]3O[C@H](CO)[C@@H](O)[C@H](O)[C@H]3N)O[C@@H]2CO)[C@H](N)[C@@H](O)[C@@H]1O` [Paromomycin Sulfate] was tested. Which fraction [1] did it give?
Answer: 0.0948 ± 0.12

Question: And the fraction [2]?
Answer: 0.987 ± 0.023

Question: What about the “fraction … with nuclear” value [3] of the same compound?
Answer: 0.124 ± 0.085

Question: And the “fraction … with nuclear” value [4]?
Answer: 0.203 ± 0.049
